{"source": "the supplement of paper PMC4749390", "note": "Structures can show the parent of a compound that is named as a salt. This is one part of the list. This data set is noisy: repeats of one test often differ as much as different tests do.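 JEG3 cells stably express tetracycline-inducible wild-type human LRH-1, a highly sumoylated nuclear receptor. SUMO-sensitive transcripts APOC3 and MUC1, increased by SUMO-deficient LRH-1 or UBC9 knockdown, were quantified by RT-qPCR relative to TBP and DMSO controls. Primary hits had robust Z-scores above +2 or below -2, before toxicity and TBP filtering.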"}
{"tested_on": "JEG3 expressing hLRH-1", "assay": "APOC3 transcript change (ddCt vs TBP and DMSO), Z-score over library; higher = higher APOC3 expression", "conditions": "10 µM; time (hr): 24"}
{"compound": "O=C(CCCN1CC=C(n2c(O)nc3ccccc32)CC1)c1ccc(F)cc1", "note": "[droperidol]", "APOC3 transcript change (Z-score)": -0.911}
{"compound": "Cc1ccc(S(=O)(=O)NCl)cc1", "note": "[chloramine-t]", "APOC3 transcript change (Z-score)": -2.3}
{"compound": "CC(Oc1ccccc1)C(=O)N[C@@H]1C(=O)N2[C@@H]1SC(C)(C)[C@@H]2C(=O)O", "note": "(stereo not given in full) [phenethicillin potassium]", "APOC3 transcript change (Z-score)": 1.42}
{"compound": "COc1cc([C@@H]2c3cc4c(cc3C(O[C@@H]3O[C@@H]5CO[C@@H](c6cccs6)OC5[C@H](O)[C@H]3O)C3COC(=O)[C@@H]32)OCO4)cc(OC)c1O", "note": "(stereo not given in full) [teniposide]", "APOC3 transcript change (Z-score)": 4.6}
{"compound": "O=C(O)c1cccnc1Nc1cccc(C(F)(F)F)c1", "note": "[niflumic acid]", "APOC3 transcript change (Z-score)": 0.0816}
{"compound": "CC(=O)NCCCCCC(=O)O", "note": "[acexamic acid]", "APOC3 transcript change (Z-score)": -0.273}
{"compound": "c1ccc(CC2=NCCN2)cc1", "note": "[tolazoline hydrochloride]", "APOC3 transcript change (Z-score)": -1.15}
{"compound": "Nc1ccc(S(=O)(=O)Nc2nccs2)cc1", "note": "[sulfathiazole]", "APOC3 transcript change (Z-score)": 0.0209}
{"compound": "CC(C)(Oc1ccc(C2CC2(Cl)Cl)cc1)C(=O)O", "note": "(stereo not given) [ciprofibrate]", "APOC3 transcript change (Z-score)": -0.214}
{"compound": "Clc1ccc(C(Cn2ccnc2)OCc2ccsc2Cl)c(Cl)c1", "note": "(stereo not given) [tioconazole]", "APOC3 transcript change (Z-score)": 0.761}
{"compound": "CC[C@]1(O)C[C@H]2CN(CCc3c([nH]c4ccccc34)[C@@](C(=O)OC)(c3cc4c(cc3OC)N(C)[C@H]3[C@@](O)(C(=O)OC)[C@H](OC(C)=O)[C@]5(CC)C=CCN6CC[C@]43[C@@H]65)C2)C1", "note": "[vinblastine sulfate]", "APOC3 transcript change (Z-score)": -2.09}
{"compound": "Cc1ccccc1C(OCCN(C)C)c1ccccc1", "note": "(stereo not given) [orphenadrine citrate]", "APOC3 transcript change (Z-score)": 0.924}
{"compound": "NC(=O)c1cnccn1", "note": "[pyrazinamide]", "APOC3 transcript change (Z-score)": 0.101}
{"compound": "Cc1cc(C2CCCCC2)n(O)c(=O)c1", "note": "[ciclopirox olamine]", "APOC3 transcript change (Z-score)": 3.56}
{"compound": "O=C1OC(c2ccc(O)cc2)(c2ccc(O)cc2)c2ccccc21", "note": "[phenolphthalein]", "APOC3 transcript change (Z-score)": 0.502}
{"compound": "NS(=O)(=O)c1cc2c(cc1Cl)NCNS2(=O)=O", "note": "[Hydrochlorothiazide]", "APOC3 transcript change (Z-score)": 0.422}
{"compound": "O=C1c2cccc(O)c2C(=O)c2c(O)cccc21", "note": "[dantron]", "APOC3 transcript change (Z-score)": 2.17}
{"compound": "OCCOCCN1CCN(C(c2ccccc2)c2ccc(Cl)cc2)CC1", "note": "(stereo not given) [hydroxyzine pamoate]", "APOC3 transcript change (Z-score)": -1.75}
{"compound": "Nc1ccc(S(N)(=O)=O)cc1", "note": "[sulfanilamide]", "APOC3 transcript change (Z-score)": -0.3}
{"compound": "CN1CCCC(n2nc(Cc3ccc(Cl)cc3)c3ccccc3c2=O)CC1", "note": "(stereo not given) [azelastine hydrochloride]", "APOC3 transcript change (Z-score)": 0.414}
{"compound": "Cc1cc2nc3c(=O)[nH]c(=O)nc-3n(C[C@@H](O)[C@@H](O)[C@@H](O)COP(=O)(O)O)c2cc1C", "note": "[riboflavin 5-phosphate sodium]", "APOC3 transcript change (Z-score)": 0.538}
{"compound": "COC(=O)Nc1nc2cc(S(=O)c3ccccc3)ccc2[nH]1", "note": "(stereo not given) [oxfendazole]", "APOC3 transcript change (Z-score)": -0.695}
{"compound": "CN1CCOC(c2ccccc2)c2ccccc2C1", "note": "(stereo not given) [nefopam]", "APOC3 transcript change (Z-score)": 0.183}
{"compound": "NC(=O)CCCCC1CCSS1", "note": "(stereo not given) [lipoamide]", "APOC3 transcript change (Z-score)": 0.334}
{"compound": "CCC1(C)OC(=O)N(C)C1=O", "note": "(stereo not given) [paramethadione]", "APOC3 transcript change (Z-score)": 0.902}
{"compound": "O=C(O)c1cccnc1", "note": "[niacin]", "APOC3 transcript change (Z-score)": 0.503}
{"compound": "CCC(C)(C)C(=O)O[C@H]1C[C@@H](C)C=C2C=C[C@H](C)[C@H](CC[C@@H]3C[C@@H](O)CC(=O)O3)[C@H]21", "note": "[simvastatin]", "APOC3 transcript change (Z-score)": 0.877}
{"compound": "CC#CCn1c(N2CCC[C@@H](N)C2)nc2c1c(=O)n(Cc1nc(C)c3ccccc3n1)c(=O)n2C", "note": "[linagliptin]", "APOC3 transcript change (Z-score)": -1.05}
{"compound": "Nc1ncnc2c1ncn2[C@@H]1O[C@H](CO)[C@@H](O)[C@H]1O", "note": "[adenosine]", "APOC3 transcript change (Z-score)": -0.878}
{"compound": "CN[C@@H]1[C@H](O)[C@H](NC)[C@H]2O[C@@]3(O)C(=O)C[C@@H](C)O[C@H]3O[C@@H]2[C@H]1O", "note": "[spectinomycin hydrochloride]", "APOC3 transcript change (Z-score)": -0.00199}
{"compound": "c1ccc2c(CC3=NCCN3)cccc2c1", "note": "[naphazoline hydrochloride]", "APOC3 transcript change (Z-score)": 0.327}
{"compound": "Clc1ccc2c(c1)C(N1CCNCC1)=Nc1ccccc1O2", "note": "[Amoxapine]", "APOC3 transcript change (Z-score)": 0.0327}
{"compound": "CC(=O)OCC(=O)[C@@]12OC(C)(C)O[C@@H]1C[C@H]1[C@@H]3C[C@H](F)C4=CC(=O)C=C[C@]4(C)[C@@]3(F)[C@@H](O)C[C@@]12C", "note": "[fluocinonide]", "APOC3 transcript change (Z-score)": 1.14}
{"compound": "CCN(CC)CC(=O)Nc1c(C)cccc1C", "note": "[Lidocaine hydrochloride]", "APOC3 transcript change (Z-score)": -1.26}
{"compound": "CCNC(=O)/C=C/c1cccc(Br)c1", "note": "[cinromide]", "APOC3 transcript change (Z-score)": 0.641}
{"compound": "CC1CC(OC(=O)C(O)c2ccccc2)CC(C)(C)C1", "note": "(stereo not given) [cyclandelate]", "APOC3 transcript change (Z-score)": -0.281}
{"compound": "Nc1nc(O)c2nc(CNc3ccc(C(=O)N[C@@H](CCC(=O)O)C(=O)O)cc3)cnc2n1", "note": "[folic acid]", "APOC3 transcript change (Z-score)": -0.181}
{"compound": "COc1ccc(-c2cc(C(F)F)nn2-c2ccc(S(N)(=O)=O)cc2)cc1F", "note": "[deracoxib]", "APOC3 transcript change (Z-score)": 0.188}
{"compound": "CC(C)NCC(O)c1ccc(NS(C)(=O)=O)cc1", "note": "(stereo not given) [sotalol hydrochloride]", "APOC3 transcript change (Z-score)": -0.0296}
{"compound": "CN(C)CCC(c1ccc(Cl)cc1)c1ccccn1", "note": "(stereo not given) [chlorpheniramine maleate]", "APOC3 transcript change (Z-score)": -0.17}
{"compound": "O=C1NS(=O)(=O)c2ccccc21", "note": "[saccharin]", "APOC3 transcript change (Z-score)": 0.306}
{"compound": "Nc1ccc(S(=O)(=O)c2ccc(N)cc2)cc1", "note": "[dapsone]", "APOC3 transcript change (Z-score)": -1.7}
{"compound": "Cc1nccnc1N1CCCCC1", "note": "[modaline sulfate]", "APOC3 transcript change (Z-score)": -0.298}
{"compound": "CN(C)CCN(Cc1cccs1)c1ccccn1", "note": "[methapyrilene hydrochloride]", "APOC3 transcript change (Z-score)": 0.878}
{"compound": "CCC[C@H](N[C@@H](C)C(=O)N1[C@H](C(=O)O)C[C@@H]2CCCC[C@@H]21)C(=O)OCC", "note": "[perindopril erbumine]", "APOC3 transcript change (Z-score)": 0.597}
{"compound": "CC(=O)NS(=O)(=O)c1ccc(N)cc1", "note": "[sulfacetamide]", "APOC3 transcript change (Z-score)": -0.199}
{"compound": "O=S(=O)(OC[C@H]1O[C@@H](O[C@]2(COS(=O)(=O)[O][Al]([OH])[OH])O[C@H](OS(=O)(=O)[O][Al]([OH])[OH])[C@@H](OS(=O)(=O)[O][Al]([OH])[OH])[C@@H]2OS(=O)(=O)[O][Al]([OH])[OH])[C@H](OS(=O)(=O)[O][Al]([OH])[OH])[C@@H](OS(=O)(=O)[O][Al]([OH])[OH])[C@@H]1OS(=O)(=O)[O][Al]([OH])[OH])[O][Al]([OH])[OH]", "note": "[sucralfate]", "APOC3 transcript change (Z-score)": 0.402}
{"compound": "CN1CCN(C(c2ccccc2)c2ccc(Cl)cc2)CC1", "note": "(stereo not given) [chlorcyclizine hydrochloride]", "APOC3 transcript change (Z-score)": -1.19}
{"compound": "CCN(CC)CCNC(C(=O)OCCC(C)C)c1ccccc1", "note": "(stereo not given) [camylofine dihydrochloride]", "APOC3 transcript change (Z-score)": 0.0894}
{"compound": "CC(C)NCC(O)COc1ccc(CC(N)=O)cc1", "note": "(racemic) [(±)-Atenolol]", "APOC3 transcript change (Z-score)": 1.5}
